# Laboratory results taken from PubChem BioAssay AID720504 (National Center for Advancing Translational Sciences (NCATS), 2013).
# Amino acid sequences for entries named in this document (tags omitted).
# UniProt P53350, whole entry, looked up: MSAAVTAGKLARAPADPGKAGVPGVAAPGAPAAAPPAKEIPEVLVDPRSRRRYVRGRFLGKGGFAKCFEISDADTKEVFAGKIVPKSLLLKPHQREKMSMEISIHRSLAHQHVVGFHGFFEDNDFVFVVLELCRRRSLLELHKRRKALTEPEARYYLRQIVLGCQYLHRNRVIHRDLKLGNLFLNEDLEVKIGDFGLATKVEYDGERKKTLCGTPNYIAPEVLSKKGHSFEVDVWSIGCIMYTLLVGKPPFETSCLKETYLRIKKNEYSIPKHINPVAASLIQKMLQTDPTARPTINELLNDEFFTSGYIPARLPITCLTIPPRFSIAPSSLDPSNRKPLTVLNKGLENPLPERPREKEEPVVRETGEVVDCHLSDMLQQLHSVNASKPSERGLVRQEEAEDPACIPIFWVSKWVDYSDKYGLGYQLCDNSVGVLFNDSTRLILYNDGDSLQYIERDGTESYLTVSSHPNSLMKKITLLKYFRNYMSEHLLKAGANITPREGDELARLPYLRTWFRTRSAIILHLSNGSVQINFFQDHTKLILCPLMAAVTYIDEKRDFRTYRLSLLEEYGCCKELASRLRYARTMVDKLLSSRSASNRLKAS
# Screen size: about 360,000 compounds; about 10,000 (2.8%) were called active. Inconclusive means that the source gave no clear call. Such entries were picked first, then a sample of the others. Calls come from the whole dose curve; as a rule, active = well fitted inhibition curve with a large enough effect; inconclusive = small, poorly fitted or top-dose-only effect; inactive = flat fitted curve, though single readings scatter. Potencies beside an inconclusive call are fits to weak or partial responses and may not hold up.
# Molecular target: Serine/threonine-protein kinase PLK1 (Homo sapiens) (UniProt P53350)
# Assay: qHTS for Inhibitors of PLK1-PDB (polo-like kinase 1 - polo-box domain): Primary Screen; note: nearly all actives have a fitted effect of over 65% in size; for max response, negative = inhibition: series mostly up to about 57 µM
# Conditions: Plk1 PBD binding of FITC phosphopeptide, fluorescence polarization
# % is set by controls: 0 for no effect and ±100 for the full control effect; potency is the fitted concentration of half-maximal effect.
SMILES,Potency,"max response, negative = inhibition"
Cn1c(=O)[nH]c(=O)c2c1nc(N1CCOCC1)n2CC(O)COc1ccc2ccccc2c1 (centres undefined),"inconclusive: 26.7 µM [inhibitor, single point]",
O=C1Nc2ccccc2C(=O)N(C2CCCC2)C1C(=O)NC1CC1 (centres undefined),,inactive: -10.8%
Cc1ccccc1SCC(=O)NC1CCOC1=O (centres undefined),"inconclusive: 26.7 µM [inhibitor, partial curve]",
N/C(=N\OS(=O)(=O)c1ccccc1)c1ccccn1,,inactive: -0.821%
COc1cc(/C=C2/SC(=S)NC2=O)ccc1OS(=O)(=O)c1ccc(C)cc1,active: 9.47 µM,
COc1cccc(NS(=O)(=O)c2cc(C)ccc2OC)c1,active: 8.44 µM,
Cc1cc(C)c2c(n1)sc1c(-c3ccccc3)c(C#N)c(N)nc12,"inconclusive: 37.7 µM [inhibitor, single point]",
Cc1cc(C)c(C#N)c(SCc2[nH]nc3c2C(c2ccccc2)C(C#N)=C(N)O3)n1 (centres undefined),"inconclusive: 18.9 µM [inhibitor, partial curve]",
CCc1cc(-c2n[nH]c(C)c2Oc2ccc(C(C)C)cc2)c(O)cc1O,,inactive: -2.89%
O=C(O)c1cc(N/N=C/C(Cl)=C/c2ccccc2)ccc1Cl,"inconclusive: 26.7 µM [inhibitor, partial curve]",
Cc1ccccc1NC(=O)CCSc1nnnn1-c1ccccc1,,inactive: 0.817%
O=C(O)/C=C/c1cn(-c2ccccc2)nc1-c1ccc(-c2ccc([N+](=O)[O-])cc2)o1,"inconclusive: 23.8 µM [inhibitor, partial curve]",
COc1ccc(C(=O)NCc2nnc(SCC(=O)NCCc3ccccc3)o2)cc1,"inconclusive: 33.6 µM [inhibitor, single point]",
COc1ccc(-c2cc(-c3ccco3)[nH]c(=O)c2C#N)cc1OC,"inconclusive: 29.9 µM [inhibitor, single point]",
O=C(CCN1C(=O)c2ccccc2C1=O)Nc1sc2c(c1C(=O)NCC1CCCO1)CCC2 (centres undefined),,inconclusive: -32.1% [inhibitor]
CN(C)c1ccc(-c2csc(C(O)c3cccc(Cl)c3)n2)cc1 (centres undefined),,inactive: -4.71%
CC(=O)c1c(C)oc2c1cc(NS(=O)(=O)c1ccc(C(=O)O)cc1)c1ccccc12,"inconclusive: 23.8 µM [inhibitor, partial curve]",
O=C(NC1CCCCCC1)C(=S)NC1CCCCC1,"inconclusive: 26.7 µM [inhibitor, partial curve]",
COc1ccc2c(CC(=O)N3CCN(S(=O)(=O)c4cccs4)CC3)coc2c1,,inactive: -1.62%
O=c1/c(=C\c2ccc(O)cc2)sc2nc(-c3ccccc3)c(-c3ccccc3)n12,,inactive: -3.07%
COc1cc2c(cc1OC)C(C(=O)Nc1cc(C)c(OC)c(C)c1)CC(=O)N2 (centres undefined),,inconclusive: -36.9% [inhibitor]
C[C@@H]1CN([C@H](C)CO)C(=O)Cc2cc(NC(=O)Cn3cnnn3)ccc2O[C@@H]1CN(C)Cc1ccc(Cl)c(Cl)c1,,inactive: -14.6%
COc1ccc(/C=C2/C(=O)N(CC3CCCO3)C(=S)N2C)c(OC)c1 (centres undefined),"inconclusive: 37.7 µM [inhibitor, single point]",

SMILES,Potency,"max response, negative = inhibition"
Cn1c(CNC(=O)c2ccccc2)nnc1SCC(=O)Nc1nccs1,active: 3.36 µM,
COc1cc(NS(=O)(=O)c2ccc(NC(=S)NC(=O)/C=C/c3ccc(F)cc3)cc2)ncn1,,inconclusive: -34.2% [inhibitor]
Cc1ccc(-n2c(C(C)C)nc3oc4ccccc4c(=O)c3c2=O)cc1,,inactive: -2.36%
COc1ccc(/C=N/NC(=O)CN(c2ccc(OC)cc2)S(=O)(=O)c2ccccc2)cc1,active: 26.7 µM,
Cc1ccc(CN2C3=NCCCN3c3ccccc32)cc1,active: 23.8 µM,
CCOc1ccc(NS(=O)(=O)c2cc(C)c(C)cc2C)cc1,"inconclusive: 29.9 µM [inhibitor, partial curve]",
CCCOC1CCCN(C(=O)c2ccc3oc(C(C)C)nc3c2)C1 (centres undefined),,inactive: 4.4%
Oc1ccccc1CNc1nc2ccccc2n1CCN1CCCCC1,"inconclusive: 26.7 µM [inhibitor, single point]",
O=C(CSc1nc2cc(Cl)ccc2o1)N1CCOCC1,,inactive: -14.7%
COCCOC(=O)c1[nH]c2c(c1C)C(=O)CC(c1ccco1)C2 (centres undefined),,inconclusive: -32.3% [inhibitor]
O=C1Cc2ccccc2C(=O)N1Cc1ccccc1,"inconclusive: 26.7 µM [inhibitor, single point]",
Cc1ccc(S(=O)(=O)N2[C@@H](c3cccc(Cl)c3)C(C(=O)O)=CC[C@H]2c2ccc(C(C)C)cc2)cc1,active: 21.2 µM,
CC(=O)c1cccc(N=Cc2c(O)c3ccccc3oc2=O)c1,,inactive: -3.47%
CCOC(=O)c1sc(N(Cc2ccccc2)C(=O)COC(=O)c2ccccc2O)nc1C,,inactive: 0.538%
CC(NC(=O)C12CC3CC(CC(C3)C1)C2)C(=O)NCCN(C)C (centres undefined),active: 29.9 µM,
COc1ccccc1S(=O)(=O)Cc1ccc(C(=O)NCCN2CCCCCC2)o1,"inconclusive: 29.9 µM [inhibitor, single point]",
CCCOc1ccc(N)cc1N,"inconclusive: 13.4 µM [inhibitor, partial curve]",
Cc1ccc(S(=O)(=O)Cn2nnnc2C(C(C)C)N2CCc3ccccc3C2)cc1 (centres undefined),"inconclusive: 37.7 µM [inhibitor, single point]",
O=C1CC(c2ccccc2)CN1S(=O)(=O)c1ccccc1 (centres undefined),,inactive: -9.37%
Cc1cc(S(=O)(=O)N2CCOCC2)ccc1OCC(=O)NCc1ccccn1,,inactive: -12.8%
COc1ccc(-c2csc(NC(=O)CS(=O)(=O)c3ccc(F)cc3)n2)cc1OC,"inconclusive: 26.7 µM [inhibitor, single point]",
O=C(CNC(=O)C1CC(=O)N(c2cccc3ccccc23)C1)Nc1ccccc1Br (centres undefined),,inactive: 2.3%
Cc1ccc(-c2ccc(/C=N/NC(=O)CN3CCOCC3)o2)cc1[N+](=O)[O-],"inconclusive: 33.6 µM [inhibitor, partial curve]",

SMILES,Potency,"max response, negative = inhibition"
O=C(Oc1ccc(C(=S)N2CCOCC2)cc1)c1cccc([N+](=O)[O-])c1,"inconclusive: 23.8 µM [inhibitor, partial curve]",
COC(=O)C(NC(C)=O)(Nc1nc2c(s1)CCCC2)C(F)(F)F (centres undefined),"inconclusive: 26.7 µM [inhibitor, partial curve]",
O=C(O)CSc1nc2ccccc2nc1Cc1ccccc1F,"inconclusive: 21.2 µM [inhibitor, single point]",
COc1cc(/C=C/c2c([N+](=O)[O-])c(=O)n(C)c(=O)n2C)cc(OC)c1OC,"inconclusive: 37.7 µM [inhibitor, single point]",
O=C(CSCc1ccco1)c1cccs1,"inconclusive: 26.7 µM [inhibitor, partial curve]",
Cc1c(C(=O)N(C)CCC#N)oc2ccc(S(=O)(=O)N3CCOCC3)cc12,"inconclusive: 23.8 µM [inhibitor, partial curve]",
COc1ccc(NC(=O)C(c2ccccc2)N(C)C(=O)c2cnccn2)cc1 (centres undefined),"inconclusive: 18.9 µM [inhibitor, partial curve]",
c1ccc(SCCCCNC2CCCC2)cc1,"inconclusive: 37.7 µM [inhibitor, single point]",
CSc1cccc(NC(=S)N(C(C)C)C(C)c2ccccn2)c1 (centres undefined),"inconclusive: 33.6 µM [inhibitor, partial curve]",
N#Cc1c(-c2c(Cl)cccc2Cl)noc1/C=C/Nc1ccc(C(=O)O)cc1,"inconclusive: 26.7 µM [inhibitor, partial curve]",
Fc1ccc(NC(=S)Nc2cccnc2)c(F)c1F,"inconclusive: 26.7 µM [inhibitor, partial curve]",
N#CCCN(CCCN1CCOCC1)CN1C(=O)c2ccccc2C1=O,,inactive: 6.77%
CCOCc1nnc(NC(=O)CSc2ccc(C)cc2)s1,"inconclusive: 26.7 µM [inhibitor, partial curve]",
O=C(COC(=O)c1cc(-c2ccc(Cl)s2)nc2ccccc12)NCc1ccco1,"inconclusive: 26.7 µM [inhibitor, partial curve]",
COc1ccc(-c2cc(NC=O)c3ncc(-c4ccccc4)n3c2)cc1OC,"inconclusive: 23.8 µM [inhibitor, partial curve]",
NS(=O)(=O)c1ccc(CCNC(=O)C2CCC(CNS(=O)(=O)c3ccc(Br)s3)CC2)cc1 (centres undefined),"inconclusive: 16.8 µM [inhibitor, partial curve]",
O=S(=O)(Nc1nc2ccc(S(=O)(=O)N3CCCCC3)cc2s1)c1ccccc1,"inconclusive: 26.7 µM [inhibitor, single point]",
CCOC(=O)CN1C(=O)C2Cc3ccccc3CN2C1=S (centres undefined),"inconclusive: 26.7 µM [inhibitor, partial curve]",
COc1ccc(N2C(=O)/C(=C/c3ccc([N+](=O)[O-])cc3)C=C2c2ccccc2)cc1,,inactive: -10.4%
CSc1nnc(-c2ccccc2N=Cc2c(C)[nH]n(-c3ccc4ccccc4c3)c2=O)c(=O)[nH]1,"inconclusive: 37.7 µM [inhibitor, single point]",
COc1ccccc1C(=O)Nn1c(-c2cccs2)nc2ccccc2c1=O,,inconclusive: -36.3% [inhibitor]
COc1ccc(S(=O)(=O)N(Cc2cccnc2)Cc2cc3ccccc3[nH]c2=O)cc1,active: 26.7 µM,
Cc1noc2ncnc(Sc3ccc(Cl)cc3)c12,"inconclusive: 18.9 µM [inhibitor, partial curve]",

# Some of the entries so far, as tab-separated lines.
SMILES	Potency	max response, negative = inhibition
COc1ccc(NC(=O)C(c2ccccc2)N(C)C(=O)c2cnccn2)cc1 (centres undefined)	inconclusive: 18.9 µM [inhibitor, partial curve]	
O=S(=O)(Nc1nc2ccc(S(=O)(=O)N3CCCCC3)cc2s1)c1ccccc1	inconclusive: 26.7 µM [inhibitor, single point]	
